Measured values reported in patent US6815546B2, “Analogues of camptothecin, their use as medicaments and the pharmaceutical compositions containing them” (Societe de Recherches et d'Applications Scientifiques …, priority 1995, dated 2004).
Some entries share one result that the patent states for a list of compounds.

target: T1, DNA topoisomerase 1 of purified calf thymus (Bos taurus, UniProt F1MN93); assay: Relaxation activity test of DNA induced by topoisomerase 1; type: biochemical; conditions: 10 μM, 100 μM, 200 μM and 500 μM
T1 construct: DNA topoisomerase 1 of purified calf thymus (Gibco-BRL, Paisley, United Kingdom); purchased Gibco-BRL, Paisley, United Kingdom; host or cells: calf thymus tissue
T1 sequence (F1MN93 1-767): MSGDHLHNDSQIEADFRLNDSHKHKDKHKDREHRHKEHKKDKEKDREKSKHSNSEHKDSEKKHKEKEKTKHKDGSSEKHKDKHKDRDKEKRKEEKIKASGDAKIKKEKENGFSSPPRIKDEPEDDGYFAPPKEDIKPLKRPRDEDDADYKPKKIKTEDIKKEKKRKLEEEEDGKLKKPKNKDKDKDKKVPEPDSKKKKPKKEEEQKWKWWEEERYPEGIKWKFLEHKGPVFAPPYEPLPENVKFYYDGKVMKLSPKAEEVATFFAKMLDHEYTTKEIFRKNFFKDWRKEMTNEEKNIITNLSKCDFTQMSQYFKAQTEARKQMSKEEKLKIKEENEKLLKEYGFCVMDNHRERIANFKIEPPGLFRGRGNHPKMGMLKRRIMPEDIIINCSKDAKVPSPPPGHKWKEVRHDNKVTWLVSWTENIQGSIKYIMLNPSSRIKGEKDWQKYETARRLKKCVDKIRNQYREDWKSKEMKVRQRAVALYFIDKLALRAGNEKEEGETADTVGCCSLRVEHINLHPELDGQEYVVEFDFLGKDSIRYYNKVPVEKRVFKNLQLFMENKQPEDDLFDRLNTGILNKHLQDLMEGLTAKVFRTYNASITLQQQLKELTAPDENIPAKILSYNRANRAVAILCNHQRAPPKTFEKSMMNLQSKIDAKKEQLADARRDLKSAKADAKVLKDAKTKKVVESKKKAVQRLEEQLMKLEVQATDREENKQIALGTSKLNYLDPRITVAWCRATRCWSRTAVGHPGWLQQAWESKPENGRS
Protocol: 1. Relaxation Activity Test of DNA Induced by Topoisomerase 1
All the reactions are carried out in a 20 μl reaction buffer constituted by 50 mM of Tris-HCl (pH 7.5), 50 mM of KCl, 0.5 mM of dithiothreitol, 10 mM of MgCl2, 0.1 mM of ethyldiamine tetraacetic acid (EDTA), 30 μg/ml of bovine serum albumin and 300 ng of supercoiled pUC19 (Pharmacia Biotech, Orsay, France) with or without the compounds to be tested at defined concentrations. All the compounds to be tested are initially dissolved in dimethylsulphoxide (DMSO) at 50 mM, the other dilutions being carried out with distilled water. […] The reaction is initiated by the addition of a unit of DNA topoisomerase 1 of purified calf thymus (Gibco-BRL, Paisley, United Kingdom) and is carried out for 15 minutes at 37° C. The reactions are stopped by the addition of 3 μl of a mixture containing 1% dodecyl sodium sulphate at 1%, 20 mM of EDTA and 500 μg/ml of K proteinase (Boehringer Mannheim, Meylan, France). After an additional incubation period of 30 minutes at 37° C., 2 μl of a loading buffer containing 10 mM of Na2HPO4, 0.3% of bromophenol blue et 16% Ficoll are added to samples which are subjected to electrophoresis in agarose gels at 1.2% at 1 V/cm for 20 hours in a buffer containing 36 mM of Tris-HCl at pH 7.8, 30 mM of Na2HPO4, 1 mM of EDTA and 2 μg/ml of chloroquine. The gels are stained with 2 μg/ml of ethidium bromide, photographed under UV light at 312 nm with a camera and the fluorescent intensity is measured with a bioProfil camera (Vilber Lournat, Lyon, France) with a view to determining the percentage of relaxed DNA. Each experiment is carried out at least three times in duplicate.
In each experiment, the supercoiled plasmid DNA is incubated alone or with topoisomerase 1. The reaction is completed within 15 minutes. For each compound to be tested or control, the supercoiled plasmid DNA is incubated in the presence of 500 μM of compound to be tested with enzyme or without enzyme plus the compound to be tested, at concentrations of 10 μM, 100 μM, 200 μM and 500 μM.

| Compound | inhibition of the relaxation activity encouraged by topoisomerase 1 |
| --- | --- |
| CCC1(O)CC(=O)OCc2c1cc1n(c2=O)Cc2cc3ccccc3nc2-1 (stereo not shown) [Example 3, 5-ethyl-5-hydroxy-1,4,5,13-tetrahydro-3H,15H-oxepino [3′,4′:6,7]indolizino[1,2-b]quinoline-3,15-dione] | inhibit the relaxation activity encouraged by topoisomerase 1 in a dose-dependent manner |
| CCc1c2c(nc3ccccc13)-c1cc3c(c(=O)n1C2)COC(=O)CC3(O)CC (stereo not shown) [Example 9, 5,12-diethyl-5-hydroxy-1,4,5,13-tetrahydro-3H,15H-oxepino[3′,4′:6,7]indolizino[1,2-b]quinoline-3,15-dione] | inhibit the relaxation activity encouraged by topoisomerase 1 in a dose-dependent manner |
| CCC1(O)CC(=O)OCc2c1cc1n(c2=O)Cc2cc3cc4c(cc3nc2-1)OCCO4 (stereo not shown) [Example 11, 8-ethyl-8-hydroxy-2,3,8,9,12,15-hexahydro-10H,13H-[1,4]dioxino [2,3-g]oxepino[3′,4′:6,7]indolizino[1,2-b]quinoline-10,13-dione] | inhibit the relaxation activity encouraged by topoisomerase 1 in a dose-dependent manner |
| CCN1COc2ccc3nc4c(cc3c2C1)Cn1c-4cc2c(c1=O)COC(=O)CC2(O)CC (stereo not shown) [Example 76, 2,9-diethyl-9-hydroxy-1,2,3,9,10,16-hexahydro-13H-[1,3]oxazino[5,6-f]oxepino[3′,4′:6,7]indolizino[1,2-b]quinoline-11,14-dione] | inhibit the relaxation activity encouraged by topoisomerase 1 in a dose-dependent manner |
